The source of these data is PMC6393240, “DNA replication initiation in Bacillus subtilis: structural and functional characterization of the essential DnaA–DnaD interaction” (Nucleic Acids Research, 2018).

Construct, isoform or probe ends are uncertain for at least one entry. At least one verdict rests on a figure or table, not on a statement of the authors.

In the series the test system is DnaD DDBH2 + DnaA domain I. Briefly: NMR. Particulars: 15N HSQC CSP titrations up to 8:1 with ssDNA 800 uM, ternary complex; NMR: 100 uM 15N protein, up to 8:1 partner, 800 uM ssDNA; recombinant protein; single-stranded DNA.

For GTTATTGCTC [10-mer ssDNA], the binding result is “binds”.
